EP4778941A1, “HER3/MET BINDING MOLECULE AND PHARMACEUTICAL USE THEREOF” (priority 2023, dated 2025)
Results are given in words; binding and its absence hold for the method and conditions named. Some entries that bind do so weakly or less than the wild type.

Protein sequences, listed by entry. Tags and fused reporters are not part of them. Residues count along the entry.
UniProt P21860, residues 20-643: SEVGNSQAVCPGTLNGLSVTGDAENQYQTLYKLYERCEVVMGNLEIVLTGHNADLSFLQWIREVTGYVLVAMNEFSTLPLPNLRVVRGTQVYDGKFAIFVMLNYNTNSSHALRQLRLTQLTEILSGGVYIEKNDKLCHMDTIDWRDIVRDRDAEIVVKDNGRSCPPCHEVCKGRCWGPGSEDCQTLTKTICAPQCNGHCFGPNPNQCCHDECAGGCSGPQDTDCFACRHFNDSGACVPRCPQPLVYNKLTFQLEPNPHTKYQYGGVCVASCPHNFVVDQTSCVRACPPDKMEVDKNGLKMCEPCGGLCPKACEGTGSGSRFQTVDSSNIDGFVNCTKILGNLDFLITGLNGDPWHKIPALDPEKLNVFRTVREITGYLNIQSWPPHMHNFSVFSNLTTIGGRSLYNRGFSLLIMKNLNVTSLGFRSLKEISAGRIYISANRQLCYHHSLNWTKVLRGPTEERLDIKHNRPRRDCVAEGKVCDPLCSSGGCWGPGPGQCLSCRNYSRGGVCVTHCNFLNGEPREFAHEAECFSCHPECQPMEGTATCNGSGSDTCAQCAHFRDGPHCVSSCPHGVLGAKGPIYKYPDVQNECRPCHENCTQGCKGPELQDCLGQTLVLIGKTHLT

Molecular target: His-tagged human HER3 antigen (human) (UniProt P21860)
Assay: SPR, Biacore 8K

B1: Antibody A T94V (antibody, human IgG1, kappa, V domains shown)
VH: QVQLVQSGGGLVQPGRSLRLSCAASGFTFDDYAMHWVRQAPGKGLEWVSGISWNSGSIGYADSVKGRFTISRDNAKNSLYLQMNSLRAEDTALYYCAKEGLPGLDYWGQGTLVTVSS
VL: DIQMTQSPSSLSASIGDRATITCRASQHVGTYLNWYQQKPGKTPKLLISGAANLQSGVPSRFSGSGSGTDFTLTISSLQPEDFATYYCQQSYNVPPFSFGQGTKVEIKR
binding: binds
